Measurements as given in PubChem BioAssay AID1508600 (Functional Genomics Laboratory (NCATS/FGL), 2020).
The campaign covered roughly 53,000 sequences. About 3,700 (7%) were called active.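 How the source made its calls: active means gene knockdowns whose robust z-score for IL-1 alpha signal is at least 2 or at most -2, so actives lie on both sides; inactive means the rest.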 The list shows a part of the results.

Assay: Components of the Cytosolic LPS Sensing Pathway: Gene Identification via Genome-wide siRNA Screen;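 further: robust z of the log signal after scaling to non-targeting control siRNA wells of the plate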
Settings: RAW264.7 macrophages, IL-1a HTRF, actives lie on both sides, screened at 100 nM (by protocol), cells primed 5 h with Pam3CSK4 first
In short: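 Mouse macrophage line RAW264.7 is transfected with siRNA (100 nM final), grown 48h, primed with TLR ligand Pam3CSK4 5 h and given intracellular LipidA 24 h. IL-1a in supernatant is read by HTRF and viability by luminescence.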

Sequence | z-score
GCAGGCAUUCUGCUCUAUATT against Oxgr1 | inactive: 1.01
GCAUGCACUUAAGAUUCUATT against Lypd6b | inactive: 0.595
GCAAAUAGGAGCUAGCCCUTT against Met | inactive: -1.46
CCCAAUUUGUAUCAGAGGGTT against Tmem132c | inactive: -1.19
GCGAACUCCUCUUUAGGCATT against Chrng | inactive: -0.594
GCUAAGUUCCAAGGCGACCTT against Serpinh1 | active: 2.77
GCCACAUGCUUCAAUAGUGTT against Lgsn | inactive: -0.899
GGAUGUGGAAACCACUAGGTT against Bst2 | inactive: 0.343
CCAAUUUAAGCAGAUGAGCTT against 4930556L07Rik | inactive: 0.385
GCAAAAUGAGAUAGAUCGUTT against Npas4 | inactive: 0.389
GCCGCUAUGUCACACUAACTT against Tmem169 | inactive: 0.44
GGAAGACUAGGAGAGACGGTT against Pqlc3 | inactive: -0.739
GGAAAUAGCUGAAGACAAATT against Tacc3 | inactive: 0.961
CCUUCAUGCAACCAGAGGUTT against Ptp4a3 | inactive: -1.06
CCUGGUAUAUUACCGCUUCTT against P3h4 | inactive: 0.519
GGUUCUUUCGACUUCCUGCTT against Ccbe1 | inactive: -0.166
GGUCAUAGGUACGUAUCCGTT against Siglech | inactive: -0.465
GCACAGUGGAUGCAAUCAGTT against Btbd1 | inactive: -1.9
CCAAUUAGCCUAGGUUUGGTT against Olfr799 | inactive: -0.509
GGCUUCAUCAUGCUCAUUGTT against Mllt1 | inactive: -0.625
CCAAAUCGUACUGGAAGACTT against Ttr | inactive: 0.47
GGCCAAGAACUCUCUCAUGTT against Ess2 | inactive: 0.347
CCAAUCUCCUGUUGUUAAATT against Mlf1 | inactive: 0.557

Some values from the results shown.
Entry of GGUUCUUUCGACUUCCUGCTT against Ccbe1 under z-score: inactive: -0.166
Entry of CCAAUCUCCUGUUGUUAAATT against Mlf1 under z-score: inactive: 0.557
Entry of CCAAAUCGUACUGGAAGACTT against Ttr under z-score: inactive: 0.47
Entry of GGAAGACUAGGAGAGACGGTT against Pqlc3 under z-score: inactive: -0.739

(cont.)

Sequence | z-score
GGAGAUUGGCUUCCAGAAATT against Slc38a7 | inactive: 0.494
GGUUCAGAAUUUUUCCUUCTT against Olfr330 | inactive: 0.131
GGAAAAAGAAGCAAGAGCUTT against Mark3 | inactive: 1.2
GGGUGAAAGCUGACUUUAATT against Rnh1 | inactive: -1.57
GCGGAAACAAUCCAUUUAATT against Pcdhgb7 | inactive: 1.11
GAAAUUAGAACAACUUUGGTT against 3830403N18Rik | inactive: 0.442
CCAUCUCUCUAAUGAUUGATT against Txndc5 | inactive: -0.604
CCUGCAUCACGUUAGUUACTT against Ankrd28 | inactive: 0.146
GGACUCGUAGCGAUAAUGATT against Slc35g1 | inactive: -0.594
GGGAAGGGUGAAGAACAGGTT against Ifrd2 | inactive: 0.872
GCAUGCGUUUUUCCGGUAUTT against Prkcb | inactive: 1.24
GGACCCACAACUCCCUUUUTT against Thap7 | inactive: -1.34
GCCAACCAUUAAGCUACUATT against Gyg | inactive: -0.535
CGCUGAAAUAAAGACCAGATT against Lmf1 | inactive: 0.696
GGUACUAGAUGACAAAAACTT against Cfap20 | inactive: 0.436
GGAGGAUGAGAUGAUGCCATT against Sez6l2 | active: -2.19
GGAAACAACAGAAUAAAGCTT against Chrm1 | inactive: 0.369
CGUGGAAUCCAGACACUUGTT against Gsdma2 | inactive: 1.65
GCCAUCUGUAGUGACCAGATT against Notch2 | inactive: -0.493
GCAGCGUACAAAUCCUUCUTT against Numb | inactive: -0.201
GCAGUGACGACCAAAAAUCTT against Ttc12 | inactive: -0.736
GGUCUUCUCCGAGUACUUUTT against Ap1m1 | active: 4.38
GGGAUCUGGAUUUAAUUUGTT against Arf5 | inactive: 0.523

Sequence | z-score
GCAUGAAGAGCUAAUGCUATT against Eprs | inactive: -0.364
GGCCCAACACAGAGAUACUTT against Cttnbp2nl | inactive: 1.24
GGACUUUGUUCUGGAAUCGTT against Mterf3 | inactive: 0.224
CCUACUUAAGGUCUAGUUUTT against Tafa1 | inactive: 0.26
GGACCUGACCUACUCGUGUTT against Rxrb | inactive: -0.216
GGAGAUUUGUUGUUAAGGGTT against Pcdhb2 | inactive: -0.826
GGAAAGUGUGGUGACUUCATT against Olfr860 | inactive: 1.08
GGUCCUAGGAGACUUUUUGTT against Dnah11 | inactive: -0.444
GAAGCAGAUACCAAAACAATT against Kir3dl1 | active: -3.02
GGAGUCUACCAUGUGAUCUTT against Tmem134 | inactive: 0.583
GGCUUUGAAUUUCUAAGACTT against Olfr125 | inactive: -1.96
GCUCUGUUAUAGCCAUGGUTT against Spib | inactive: 0.0925
GGGCAAGUUACAAGAAAUGTT against Mif4gd | inactive: 1.16
CGCGCAAUGCUCCUUUGAGTT against Retnlb | inactive: 0.704
GGAAUACACUCAAUAUUGATT against Nupl1 | active: -2.59
GGUCUAAUACUCAAUAGACTT against Tmem200a | inactive: 0.0917
GGAAAGGAAUCCAAAAAUCTT against Lias | inactive: -0.42
GGACCAAGUGGAGAAAGAATT against Nkx6-1 | inactive: -0.622
GGUAGCUGUUUAGGACAAUTT against Arl6ip5 | active: 3.79
GCAGGAUUAUUUGUCACUUTT against Lims2 | inactive: 1.72
GGAAAUCCUCAACUUCAUUTT against Cyp2b13 | inactive: -0.296
UCAUCGUACCCAUUCCCAATT against Manbal | inactive: -1.32
